# Source: the supplement of paper PMC4604168 (melanoma cell lines)
# The other results are listed elsewhere or left out. Single values are uncertain, as repeats are few or missing.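 Imaging used 1,536-well plates; nuclei positive for cleaved PARP by antibody were divided by total DNA-stained nuclei to yield the apoptosis fraction. Doses for screening kept most cells viable, and cell lines differ markedly in resting and induced cleaved-PARP levels.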
# Tested on: UACC257
# Test: cleaved PARP positive nuclei fraction relative to DMSO control; melanoma cells; higher = more apoptosis
# Conditions: library dose: low library concentration; 72 h
row,SMILES,cleaved PARP positive nuclei fraction [%]
1,"Nc1cccc2c1CN(C1CCC(=O)NC1=O)C2=O (stereo not drawn) [lenalidomide] + COc1cc(Nc2ncc(F)c(Nc3ccc4c(n3)NC(=O)C(C)(C)O4)n2)cc(OC)c1OC [Tamatinib] (first compound 1 µM, partner dose 0.4 µM)",69.4
2,"C[C@]1(c2nc3c(C(N)=O)cccc3[nH]2)CCCN1 [Veliparib] + CC(C)(C)c1cnc(CSc2cnc(NC(=O)C3CCNCC3)s2)o1 [SNS-032] (first compound 1.4 µM, partner dose 0.01 µM)",254
3,"CC1(C)NC(=O)N(c2ccc([N+](=O)[O-])c(C(F)(F)F)c2)C1=O [nilutamide] + O=C(Nc1cccc(Cl)c1)Nc1ncc(CCNc2ncnc3ccsc23)s1 [SNS314] (first compound 1 µM, partner dose 0.0008 µM)",173
4,"Cn1nnc2c(C(N)=O)ncn2c1=O [temozolomide] + C[C@@H]1CCN(C(=O)CC#N)C[C@@H]1N(C)c1ncnc2[nH]ccc12 [CP690550] (first compound 2 µM, partner dose 1 µM)",57.5
5,"Clc1ccc(Nc2nnc(Cc3ccncc3)c3ccccc23)cc1 [vatalanib] + C=CCn1c(=O)c2cnc(Nc3ccc(N4CCN(C)CC4)cc3)nc2n1-c1cccc(C(C)(C)O)n1 [MK1775] (first compound 2 µM, partner dose 0.02 µM)",148
6,"CC(C)(C)c1cnc(CSc2cnc(NC(=O)C3CCNCC3)s2)o1 + Cc1cc(N2CCOCC2)cc2[nH]c(-c3c(NC[C@@H](O)c4cccc(Cl)c4)cc[nH]c3=O)nc12 [BMS536924] (first compound 0.01 µM, partner dose 0.2 µM)",59.6
7,"OCc1c[nH]c2ccccc12 [Indole-3-carbinol] + O=S(=O)(c1ccccc1)N(CC(F)(F)F)c1ccc(C(O)(C(F)(F)F)C(F)(F)F)cc1 [T0901317] (first compound 0.8 µM, partner dose 1.4 µM)",67.1
8,"C=CCNC1=C2C[C@@H](C)C[C@H](OC)[C@H](O)[C@@H](C)/C=C(\C)[C@H](OC(N)=O)[C@@H](OC)/C=C\C=C(/C)C(=O)NC(=CC1=O)C2=O [Tanespimycin] + CC(C)CCN1c2nc(Nc3cc(F)c(O)c(F)c3)ncc2N(C)C(=O)C1C [BID1870] (first compound 0.002 µM, partner dose 0.2 µM)",86.3

# Part of the list above, with tabs.
row	SMILES	cleaved PARP positive nuclei fraction [%]
7	OCc1c[nH]c2ccccc12 [Indole-3-carbinol] + O=S(=O)(c1ccccc1)N(CC(F)(F)F)c1ccc(C(O)(C(F)(F)F)C(F)(F)F)cc1 [T0901317] (first compound 0.8 µM, partner dose 1.4 µM)	67.1
8	C=CCNC1=C2C[C@@H](C)C[C@H](OC)[C@H](O)[C@@H](C)/C=C(\C)[C@H](OC(N)=O)[C@@H](OC)/C=C\C=C(/C)C(=O)NC(=CC1=O)C2=O [Tanespimycin] + CC(C)CCN1c2nc(Nc3cc(F)c(O)c(F)c3)ncc2N(C)C(=O)C1C [BID1870] (first compound 0.002 µM, partner dose 0.2 µM)	86.3
